31 compounds from the supplement of paper PMC10727501 can be followed below.

This is one part of the list. Repeats in this data set agree poorly, so a single value says little.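 Researchers measured free-swimming zebrafish larvae's O-bend response probability to dark flashes (naive: first five; training: remaining flashes of four 60-flash blocks; test: later 60-flash block) and OMR turning toward alternating leftward/rightward LED motion. Six treated larvae were compared to sixty 0.1% DMSO controls, with |SSMD|≥2 marking a hit.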

The assay relates to Danio rerio larvae (5 dpf, TLF). Description: OMR-Perf (SSMD vs DMSO vehicle); higher = higher than vehicle (e.g. higher dark-flash O-bend response probability, or better optomotor performance). The note with it: 10 µM; pre-incubation: 30-90 min.
`NC(=S)NN=Cc1ncccc1N` [Triapine]: the OMR-Perf is -0.253.

In the case of `CCN1CCN(C(=O)N[C@@H](C(=O)N[C@H]2C(=O)N3[C@@H]2SC(C)(C)[C@H]3C(=O)[O-])c2ccccc2)C(=O)C1=O.[Na+]` [Piperacillin Sodium], the OMR-Perf came to 0.129.

Regarding `Br.Br.NCCCCCNCC12CC3CC(CC(C3)C1)C2` [IEM 1754 dihydrobroMide], the OMR-Perf turned out to be 0.738.

As for `Cc1cc(C(C)(C)C)c(O)c(C)c1CC1=NCCN1.Cl` [Oxymetazoline HCl], the OMR-Perf was determined as 0.0746.

`NC(CO)(CO)CO` [Trometamol] came in with an OMR-Perf of 0.16.

Regarding `CN1CCC[C@@H]1CCO[C@](C)(c1ccccc1)c1ccc(Cl)cc1.O=C(O)/C=C/C(=O)O` [Clemastine Fumarate], the OMR-Perf was -0.346.

Turning to `Cl.Clc1ccccc1CN1CCc2sccc2C1` [Ticlopidine HCl], the OMR-Perf is -0.554.

On to `Cc1cn2cc(C(=O)N(C)CCO)cc(N[C@@H]3CCOc4cccc(C)c43)c2n1`, for which the OMR-Perf is -0.532.

On to `CC(C)Oc1ccc2c(=O)c(-c3ccccc3)coc2c1` [Ipriflavone (Osteofix)], for which the OMR-Perf is -0.172.

As to `Cc1cc(Nc2ncnc3ccc(-c4ccc(CNCCS(C)(=O)=O)o4)cc23)ccc1Oc1ccn2ncnc2c1` [HER2-Inhibitor-1], the OMR-Perf was -0.69.

On to `NC(=O)N1c2ccccc2CC(=O)c2ccccc21` [Oxcarbazepine], for which the OMR-Perf turned out to be 0.207.

Regarding `CC1(C)S[C@@H]2[C@H](NC(=O)[C@H](N)c3ccc(O)cc3)C(=O)N2[C@@H]1C(=O)[O-].[Na+]` [Amoxicillin Sodium], the OMR-Perf is -0.672.

Take `Cc1oncc1C(=O)Nc1ccc(C(F)(F)F)cc1` [Leflunomide]: the OMR-Perf was -0.876.

`CC(C)NCC(O)COc1ccc(COCCOC(C)C)cc1.O=C(O)/C=C/C(=O)O` (stereo unspecified) [Bisoprolol fumarate] registered an OMR-Perf of -0.493.

Compound `Cc1c(CN2CCN(C(=O)[C@H](C)O)CC2)sc2c(N3CCOCC3)nc(-c3cnc(N)nc3)nc12` registered an OMR-Perf of -0.371.

`CC1CCc2c(N3CCC(O)CC3)c(F)cc3c(=O)c(C(=O)O)cn1c23` (stereo unspecified) [Nadifloxacin] displayed an OMR-Perf of -0.041.

On to `CC1CCN(CC[C@H]2CCCN2S(=O)(=O)c2cccc(O)c2)CC1.Cl`, for which the OMR-Perf is -0.528.

`CC[C@]1(O)C[C@@H]2C[N@](CCc3c([nH]c4ccccc34)[C@@](C(=O)OC)(c3cc4c(cc3OC)N(C)[C@@H]3C45CCN4CC=C[C@](CC)([C@H]45)[C@H](OC(C)=O)[C@]3(O)C(=O)OC)C2)C1` (stereo partly specified) [Vinblastine] displayed an OMR-Perf of 0.329.

In turn, `C#CCN(C)CCCOc1ccc(Cl)cc1Cl.Cl` [Clorgyline HCl] registered an OMR-Perf of -0.676.

`CC(C)[C@H](CNC(=O)[C@@H](NC(=O)c1cccc(-c2ccccc2)n1)[C@@H](C)O)B(O)O`: the OMR-Perf worked out at 0.218.

Regarding `Cn1c(=O)cc(N2CCC[C@@H](N)C2)n(Cc2ccccc2C#N)c1=O` [Alogliptin], the OMR-Perf was -0.116.

For `N#CC[C@@H](C1CCCC1)n1cc(-c2ncnc3[nH]ccc23)cn1`, the OMR-Perf is -0.189.

`O=C(NC(NC(=S)Nc1ccc(F)c([N+](=O)[O-])c1)C(Cl)(Cl)Cl)C(c1ccccc1)c1ccccc1` (stereo unspecified) returned an OMR-Perf of 0.107.

For `COc1cc([C@H]2Oc3cc([C@@H]4Oc5cc(O)cc(O)c5C(=O)[C@@H]4O)ccc3O[C@@H]2CO)ccc1O` [Silibinin], the OMR-Perf amounted to 0.247.

In turn, `Cc1ccnc(NS(=O)(=O)c2ccc(N)cc2)n1` [Sulfamerazine] came in with an OMR-Perf of 0.163.

As for `COc1ccc2c(Oc3ccc(NC(=O)c4c(C)n(CC(C)(C)O)n(-c5ccccc5)c4=O)nc3)ccnc2c1`, the OMR-Perf is -0.139.

In the case of `c1cn2cc(-c3ccc4cn[nH]c4c3)nc(Nc3ccc(N4CCOCC4)cc3)c2n1`, the OMR-Perf turned out to be 0.933.

For `N.N.O=C([O-])C1(C(=O)[O-])CCC1.[Pt+2]` [Carboplatin], the OMR-Perf is -0.222.

For the compound `Cc1cc2nc3c(=O)[nH]c(=O)nc-3n(C[C@H](O)[C@H](O)[C@H](O)CO)c2cc1C` [Riboflavin (Vitamin B2)], the OMR-Perf amounted to 0.131.

For the compound `O=C(Oc1ccccc1C(=O)O)c1ccccc1O` [Sasapyrine], the OMR-Perf was -0.293.

`CCCc1cc2c(N3CCN(C4=NCC(C)(C)S4)CC3)ncnc2s1` [MI-2 (Menin-MLL Inhibitor)] showed an OMR-Perf of -0.727.
